Assay results from PubChem BioAssay AID493014 (National Center for Advancing Translational Sciences (NCATS), 2011).
Hit rate of the full screen: of about 340,000 compounds, about 170 (0.05%) were called active. The shares of active, inactive and inconclusive entries below differ from those in the screen. Calls come from the whole dose curve; as a rule, active = well fitted inhibition curve with a large enough effect in the signal ratio, with a control signal flat (not every such curve was filed as active); inconclusive = small, poorly fitted or top-dose-only effect, or effect the other way, or a change in a side signal; inactive = flat fitted curve, though single readings scatter; the % refers to the signal ratio. A potency beside an inconclusive call is a rough fit, not a confirmed value.

assay: qHTS Assay to Find Inhibitors of Chronic Active B-Cell Receptor Signaling; details: ABC-DLBCL IkBa-CBG/CBR reporter, luminescence ratio (green luciferase fused to IkBa over red control in TMD8 lymphoma cells), 4 h; activity change, negative = inhibition: at 46.1 µM (top of the series);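 for activity change, negative = inhibition: plate controls were basal doxycycline-induced cells for no effect and cells given 10 µM MG132 for full effect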
Outline: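 Doxycycline induced both beetle luciferases in TMD8 lymphoma cells; IKK-driven degradation limits the IkappaBalpha-fused green signal, while red luminescence normalises for cell number and nonspecific effects. Compounds tested up to 46 uM, 4 hrs.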
Potency is the fitted concentration of half-maximal effect.

Row | SMILES | activity change, negative = inhibition | Potency
1 | COc1ccc(OC2C(=O)N(Cc3ccc4c(c3)OCO4)C2c2cccs2)cc1 (stereo not drawn) | inconclusive: 0.428% | 
2 | O=C(CCn1cccc1)N1CCc2ccccc21 | inconclusive: 10.7% | 
3 | Cc1ccc(CNS(=O)(=O)c2ccc3c(c2)NC(=O)C(C)S3)cc1 (stereo not drawn) | inactive: 0.151% | 
4 | COc1ccc(NC(=O)CSc2nc3c(c(=O)n(C)c(=O)n3C)n2C)c(OC)c1 | inconclusive: -155% | 
5 | Cn1sc(NC(=O)c2cccc(Cl)c2)nc1=O |  | inconclusive: 22.4 µM [falling, partial curve]
6 | COc1ccc(N/C(N)=N/c2nc(CSc3nnc(C)s3)cc(=O)[nH]2)cc1 |  | inconclusive: 3.98 µM [falling, single point]
7 | CCOC(=O)c1ccc(NC(=O)N2CC(C)OC(C)C2)cc1 (stereo not drawn) | inconclusive: -0.62% | 
8 | O=C(Nc1cccnc1)c1cc(S(=O)(=O)N2CCCCC2)c(Cl)cc1Cl | inconclusive: -1.05% | 
9 | O=C(Nc1ccc(Br)cc1Cl)c1ccc(OCC2CCCO2)cc1 (stereo not drawn) | inactive: 0.522% | 
10 | COc1cccc(CN(C)C(=O)c2cc(S(=O)(=O)N3CCN(c4ccccc4)CC3)ccc2Cl)c1 | inactive: 10.4% | 
11 | Cc1cc(=O)[nH]c2ccc(S(=O)(=O)Nc3ccccc3)cc12 | inconclusive: -1.38% | 
12 | Cc1onc(-c2ccccc2)c1C(=O)OCC(=O)Nc1ccc(Cl)cc1 | inconclusive: -2.89% | 
13 | CC(C)(CC(=O)OCC(=O)Nc1ccc(F)c(Cl)c1)CC1=NS(=O)(=O)c2ccccc2N1 |  | inconclusive: 35.5 µM [falling, single point]
14 | Cc1ccc(S(=O)(=O)NN2C(=O)/C(=C/c3ccccn3)SC2=S)cc1 | inconclusive: 6.26% | 
15 | OC1(c2ccc(F)cc2)CN(c2ccccc2)C2=[N+]1CCS2 (stereo not drawn) |  | inconclusive: 16.4 µM [rising, partial curve, poor fit]
16 | CCOc1ccc(S(=O)(=O)N2CCC(C(=O)N3CCCC3)CC2)cc1C | inactive: -1.85% | 
17 | Cc1cc(NC(=O)Cn2nc([N+](=O)[O-])c(Br)c2C)no1 | inactive: -1.62% | 
18 | NC(=O)N/N=C/c1ccc([N+](=O)[O-])o1 | inactive: 3.27% | 
19 | CCCCCCn1c(C)nc2c(c1=O)c1nc3ccccc3nc1n2/N=C/c1ccco1 | inconclusive: 23.9% | 
20 | COC(=O)/C=C/C(=O)N1CCN(c2cccc(Cl)c2)CC1 | inconclusive: 0.796% | 
21 | Cc1cccc(N(Cc2ccccc2)C(=O)c2cc(S(=O)(=O)N3CCOCC3)ccc2F)c1 | inactive: 3.15% | 

Laid out differently: four of the compounds above
CCOC(=O)c1ccc(NC(=O)N2CC(C)OC(C)C2)cc1 (stereo not drawn)
  activity change, negative = inhibition: inconclusive: -0.62%
O=C(Nc1cccnc1)c1cc(S(=O)(=O)N2CCCCC2)c(Cl)cc1Cl
  activity change, negative = inhibition: inconclusive: -1.05%
O=C(Nc1ccc(Br)cc1Cl)c1ccc(OCC2CCCO2)cc1 (stereo not drawn)
  activity change, negative = inhibition: inactive: 0.522%
COc1cccc(CN(C)C(=O)c2cc(S(=O)(=O)N3CCN(c4ccccc4)CC3)ccc2Cl)c1
  activity change, negative = inhibition: inactive: 10.4%

(next part)

Row | SMILES | activity change, negative = inhibition | Potency
22 | CCCCN1C(=O)NC2NC(=O)NC21 (stereo not drawn) | inconclusive: -11.5% | 
23 | Cc1cc(C)n2cc(COc3ccc4ccccc4c3)nc2n1 | inconclusive: -3.86% | 
24 | Cc1ccccc1N1CCN(C2CCCN(C(=O)c3ccsc3)C2)CC1 (stereo not drawn) | inactive: 0.0127% | 
25 | COc1ccccc1C(=O)NNC(=O)c1ccc(Cl)cc1 |  | inconclusive: 31.6 µM [falling, partial curve]
26 | CC[C@]12c3[nH]c4ccc(Cl)cc4c3CCN1C(=O)[C@@H](CC(=O)NCCC1=CCCCC1)C[C@@H]2C(=O)N1CCN(C(=O)c2ccco2)CC1 |  | inconclusive: 20.6 µM [falling, partial curve, poor fit]
27 | Cc1ccc(C(=O)c2c3ccc([N+](=O)[O-])cc3[n+]([O-])n2CCCC(N)=O)cc1 | inconclusive: 11.6% | 
28 | CC(C)/C=C1\CC/C(=C\c2ccc(N(C)C)cc2)C1=O | inconclusive: 12% | 
29 | COC(=O)c1ccc(CSc2n[nH]c(-c3ccccc3)n2)o1 |  | inconclusive: 35.5 µM [falling, single point]
30 | CCc1cc(C(=O)Nc2nnc(C3CC3)s2)sc1C | inconclusive: 5.91% | 
31 | CCOC(=O)C1(Cc2ccc(Cl)cc2)CCN(CCCn2cccn2)CC1 | inconclusive: 11.7% | 
32 | O=C(NNC1=C(C(=O)C(F)(F)F)CCC1)c1cccc(Cl)c1 |  | inconclusive: 20.6 µM [falling, partial curve]
33 | CC(=O)Nc1ccc(/C=C/c2ccc3c([N+](=O)[O-])cccc3n2)cc1 | inactive: 4% | 
34 | Cc1ccc(C(=O)CN2C(=O)C(C)Oc3ccccc32)cc1 (stereo not drawn) | inactive: -15.6% | 
35 | Cc1ccc(OCC(=O)N/N=C/c2ccc([N+](=O)[O-])o2)cc1 | inconclusive: -26.3% | 
36 | Cc1c(NC(=O)CSCc2ccccc2)cccc1C(=O)O | inconclusive: -14.1% | 
37 | Cn1nc(-c2ccc(OCC(=O)Nc3ccccc3)cc2)c2ccccc2c1=O | inactive: -13.8% | 
38 | COc1cccc(CCC(=O)Nc2cc3c(cc2C(=O)O)OCCCO3)c1OC | inconclusive: -17.7% | 
39 | Cc1sc2nc(CN3CCCC3)nc(N3CCN(S(=O)(=O)c4cccc(F)c4)CC3)c2c1C | inactive: -2.63% | 
40 | Cc1ccc(N2C(=O)S/C(=C/c3cn(C)c4ccccc34)C2=O)cc1 | inconclusive: 0.727% | 
41 | COc1cccc(C2(O)CC(C(F)(F)F)=NN2C(=O)c2ccccn2)c1 (stereo not drawn) |  | inconclusive: 12.6 µM [falling, single point]
42 | COc1cccc2[nH]c(C(=O)NC(C)c3ccccc3)cc12 (stereo not drawn) | inconclusive: 9.81% | 

A portion from the list above, as a working copy:
Row | SMILES | activity change, negative = inhibition | Potency
24 | Cc1ccccc1N1CCN(C2CCCN(C(=O)c3ccsc3)C2)CC1 (stereo not drawn) | inactive: 0.0127% | 
25 | COc1ccccc1C(=O)NNC(=O)c1ccc(Cl)cc1 |  | inconclusive: 31.6 µM [falling, partial curve]

More structures.

Row | SMILES | activity change, negative = inhibition | Potency
43 | Cc1cc(Cl)ccc1NC(=S)NC(C)(C)C | inconclusive: -0.0151% | 
44 | CC1(C)CC(=O)C=C(NCc2ccc(Cl)c(Cl)c2)C1 | inactive: -6.01% | 
45 | O=C1O/C(=C\c2ccccc2)c2ccccc21 | inconclusive: 5.18% | 
46 | CCN(CC(=O)Nc1c(F)cccc1F)C(=O)CNC(=O)c1ccco1 | inconclusive: 10.2% | 
47 | COc1ccccc1C(=O)NNC(=O)c1cccc(Br)c1 |  | inconclusive: 17.8 µM [falling, partial curve]
48 | CCC(=O)Nc1cc2nn(-c3ccccc3)nc2cc1Cl | inconclusive: 8.07% | 
49 | CCOC(=O)C1CCCN(CC(=O)Nc2c(C(=O)OC)[nH]c3ccc(Br)cc23)C1 (stereo not drawn) |  | inconclusive: 17.8 µM [falling, partial curve, poor fit]
50 | N#Cc1nc(/C=C/c2ccccc2)oc1NCCCN1CCOCC1 | inconclusive: -153% | 
51 | CCOc1cc(C2NC(=S)NC(C)=C2C(=O)Nc2ccccc2)ccc1O (stereo not drawn) | inactive: -13.6% | 
52 | Cc1nc(C(C)N(C)Cc2nc(-c3ccc4c(c3)OCO4)no2)c(C)s1 (stereo not drawn) | inconclusive: 5.31% | 
53 | O=C(Nc1cccc(-c2csc(Nc3ccc(Cl)cc3)n2)c1)c1ccccc1 | inactive: 9.33% | 
54 | O=C(c1ccc2c(c1)OCO2)C1CCCN(Cc2cccc(C(F)(F)F)c2)C1 (stereo not drawn) | inactive: 1.14% | 
55 | CCn1c(C(=O)NCCCN2CCc3ccccc3C2)cc2sccc21 | inactive: 1.02% | 
56 | CC1C(=O)NN=C1C(=O)N/N=C/c1ccco1 (stereo not drawn) |  | inconclusive: 35.5 µM [falling, single point]
57 | CC(C)c1ccc(NC(=O)COC(=O)c2cc(=O)[nH]c3ccccc23)cc1 | inactive: -2.76% | 
58 | O=[N+]([O-])c1ccccc1/C=N/Nc1nccnc1Cl |  | inconclusive: 12.6 µM [falling, partial curve, poor fit]
59 | CCN1/C(=C2\OC(=S)N(C)C2=O)Sc2ccccc21 | inconclusive: 4.03% | 
60 | CC(C)Cc1nnc(NC(=O)CCc2ccccc2)s1 | inconclusive: 0.801% | 
61 | COc1cc(/C=N/NC(=O)c2cccc(NC(=O)c3ccccc3)c2)ccc1O |  | inconclusive: 22.4 µM [falling, partial curve, poor fit]
62 | CCOc1ccc(NC2=NC(C(=O)NCc3ccccc3)CC(=O)N2)cc1 (stereo not drawn) | inconclusive: -0.628% | 
63 | Cc1ccc(NC(=O)n2ncc3c(C)cccc32)cc1F |  | inconclusive: 17.8 µM [falling, partial curve]

Row | SMILES | activity change, negative = inhibition | Potency
64 | COc1ccc(CN2C(=O)c3cccnc3C2=O)cc1S(=O)(=O)N1CCCCC1C (stereo not drawn) | inactive: 1.01% | 
65 | CCn1c(SCC(=O)N2CCC(C)CC2)nc2c(c1=O)SCC2 | inconclusive: 1.37% | 
66 | CC(C)c1cc(C(=O)N/N=C/C(Br)=C/c2ccccc2)n[nH]1 |  | inconclusive: 25.1 µM [falling, single point]
67 | COc1cc(SC)ccc1C(=O)Nc1ccc(Br)cn1 |  | inconclusive: 11.2 µM [falling, partial curve]
68 | CC1(C)c2ssc(=S)c2-c2ccccc2N1C(=O)CSC1=NCCS1 | inactive: 2.76% | 
69 | COc1cccc(CNCCO)c1OCc1ccc(Cl)cc1 | inactive: 11.8% | 
70 | CCc1ccc(CN2CCN(C(=O)c3cccc(OC)c3OC)CC2)cc1 | inactive: -16.6% | 
71 | Fc1ccc2cnc(CCO[C@H]3CCCCO3)cc2c1 | inconclusive: -7.91% | 
72 | CC(=O)Nc1ccc2nc(-c3ccncc3)[nH]c2c1 |  | inconclusive: 20.6 µM [falling, partial curve]
73 | O=C(CN1CCN(c2ncccn2)CC1)N(Cc1ccccc1)c1ccc(F)cc1 | inconclusive: 18.3% | 
74 | CC(OC(=O)C(C)Oc1ccccc1)C(=O)Nc1ccc(S(=O)(=O)N2CCCCC2)cc1 (stereo not drawn) | inconclusive: -0.467% | 
75 | COCc1cc(=O)[nH]c(Nc2nc(C)c3cc(OC)ccc3n2)n1 | inconclusive: 18.3% | 
76 | N#Cc1nc(COc2ccccc2)oc1N1CCCCCC1 | inconclusive: 22.7% | 
77 | c1ccc(-c2nc(-c3nccc4ccccc34)oc2-c2ccccc2)cc1 |  | inconclusive: 35.5 µM [falling, single point]
78 | Cc1ccc2nc(/C(C#N)=C/c3cn[nH]c3-c3ccc(F)cc3)[nH]c2c1 | inactive: 9.77% | 
79 | O=C(CSC1=Nc2ccccc2C2CC=NN12)NCc1ccco1 (stereo not drawn) |  | inconclusive: 18.4 µM [falling, partial curve, poor fit]
80 | O=C(CN(c1ccc(Cl)cc1)S(=O)(=O)c1ccccc1)N1CCN(c2ccccc2)CC1 | inconclusive: -1.81% | 
81 | Oc1c(C2=NCCNC(C(F)(F)F)=C2)ccc2ccccc12 | inactive: -8.23% | 
82 | Cc1c(OC(C)C(=O)NCc2ccccn2)ccc2c3c(c(=O)oc12)CCCC3 (stereo not drawn) | inactive: -4.93% | 
83 | COc1ccc(NC(=O)CN2C(=O)COc3ccc(S(=O)(=O)N4CCOCC4)cc32)c(OC)c1 | inactive: 0.37% | 
